The supplement of paper PMC6411743
± gives the standard deviation of the averaged measurements. The list shows a part of the results, in another mix than the full data.

Chains of the proteins cited; added tags and fusions are not shown. Lines headed by an entry give the natural chain unless they say otherwise; changes in a name come on top.
UniProt Q10589, whole entry: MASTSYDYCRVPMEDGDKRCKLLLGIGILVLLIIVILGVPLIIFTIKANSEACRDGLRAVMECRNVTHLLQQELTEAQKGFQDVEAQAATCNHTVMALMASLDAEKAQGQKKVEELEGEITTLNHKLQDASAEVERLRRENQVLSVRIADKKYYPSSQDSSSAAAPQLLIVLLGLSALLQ
UniProt Q09666: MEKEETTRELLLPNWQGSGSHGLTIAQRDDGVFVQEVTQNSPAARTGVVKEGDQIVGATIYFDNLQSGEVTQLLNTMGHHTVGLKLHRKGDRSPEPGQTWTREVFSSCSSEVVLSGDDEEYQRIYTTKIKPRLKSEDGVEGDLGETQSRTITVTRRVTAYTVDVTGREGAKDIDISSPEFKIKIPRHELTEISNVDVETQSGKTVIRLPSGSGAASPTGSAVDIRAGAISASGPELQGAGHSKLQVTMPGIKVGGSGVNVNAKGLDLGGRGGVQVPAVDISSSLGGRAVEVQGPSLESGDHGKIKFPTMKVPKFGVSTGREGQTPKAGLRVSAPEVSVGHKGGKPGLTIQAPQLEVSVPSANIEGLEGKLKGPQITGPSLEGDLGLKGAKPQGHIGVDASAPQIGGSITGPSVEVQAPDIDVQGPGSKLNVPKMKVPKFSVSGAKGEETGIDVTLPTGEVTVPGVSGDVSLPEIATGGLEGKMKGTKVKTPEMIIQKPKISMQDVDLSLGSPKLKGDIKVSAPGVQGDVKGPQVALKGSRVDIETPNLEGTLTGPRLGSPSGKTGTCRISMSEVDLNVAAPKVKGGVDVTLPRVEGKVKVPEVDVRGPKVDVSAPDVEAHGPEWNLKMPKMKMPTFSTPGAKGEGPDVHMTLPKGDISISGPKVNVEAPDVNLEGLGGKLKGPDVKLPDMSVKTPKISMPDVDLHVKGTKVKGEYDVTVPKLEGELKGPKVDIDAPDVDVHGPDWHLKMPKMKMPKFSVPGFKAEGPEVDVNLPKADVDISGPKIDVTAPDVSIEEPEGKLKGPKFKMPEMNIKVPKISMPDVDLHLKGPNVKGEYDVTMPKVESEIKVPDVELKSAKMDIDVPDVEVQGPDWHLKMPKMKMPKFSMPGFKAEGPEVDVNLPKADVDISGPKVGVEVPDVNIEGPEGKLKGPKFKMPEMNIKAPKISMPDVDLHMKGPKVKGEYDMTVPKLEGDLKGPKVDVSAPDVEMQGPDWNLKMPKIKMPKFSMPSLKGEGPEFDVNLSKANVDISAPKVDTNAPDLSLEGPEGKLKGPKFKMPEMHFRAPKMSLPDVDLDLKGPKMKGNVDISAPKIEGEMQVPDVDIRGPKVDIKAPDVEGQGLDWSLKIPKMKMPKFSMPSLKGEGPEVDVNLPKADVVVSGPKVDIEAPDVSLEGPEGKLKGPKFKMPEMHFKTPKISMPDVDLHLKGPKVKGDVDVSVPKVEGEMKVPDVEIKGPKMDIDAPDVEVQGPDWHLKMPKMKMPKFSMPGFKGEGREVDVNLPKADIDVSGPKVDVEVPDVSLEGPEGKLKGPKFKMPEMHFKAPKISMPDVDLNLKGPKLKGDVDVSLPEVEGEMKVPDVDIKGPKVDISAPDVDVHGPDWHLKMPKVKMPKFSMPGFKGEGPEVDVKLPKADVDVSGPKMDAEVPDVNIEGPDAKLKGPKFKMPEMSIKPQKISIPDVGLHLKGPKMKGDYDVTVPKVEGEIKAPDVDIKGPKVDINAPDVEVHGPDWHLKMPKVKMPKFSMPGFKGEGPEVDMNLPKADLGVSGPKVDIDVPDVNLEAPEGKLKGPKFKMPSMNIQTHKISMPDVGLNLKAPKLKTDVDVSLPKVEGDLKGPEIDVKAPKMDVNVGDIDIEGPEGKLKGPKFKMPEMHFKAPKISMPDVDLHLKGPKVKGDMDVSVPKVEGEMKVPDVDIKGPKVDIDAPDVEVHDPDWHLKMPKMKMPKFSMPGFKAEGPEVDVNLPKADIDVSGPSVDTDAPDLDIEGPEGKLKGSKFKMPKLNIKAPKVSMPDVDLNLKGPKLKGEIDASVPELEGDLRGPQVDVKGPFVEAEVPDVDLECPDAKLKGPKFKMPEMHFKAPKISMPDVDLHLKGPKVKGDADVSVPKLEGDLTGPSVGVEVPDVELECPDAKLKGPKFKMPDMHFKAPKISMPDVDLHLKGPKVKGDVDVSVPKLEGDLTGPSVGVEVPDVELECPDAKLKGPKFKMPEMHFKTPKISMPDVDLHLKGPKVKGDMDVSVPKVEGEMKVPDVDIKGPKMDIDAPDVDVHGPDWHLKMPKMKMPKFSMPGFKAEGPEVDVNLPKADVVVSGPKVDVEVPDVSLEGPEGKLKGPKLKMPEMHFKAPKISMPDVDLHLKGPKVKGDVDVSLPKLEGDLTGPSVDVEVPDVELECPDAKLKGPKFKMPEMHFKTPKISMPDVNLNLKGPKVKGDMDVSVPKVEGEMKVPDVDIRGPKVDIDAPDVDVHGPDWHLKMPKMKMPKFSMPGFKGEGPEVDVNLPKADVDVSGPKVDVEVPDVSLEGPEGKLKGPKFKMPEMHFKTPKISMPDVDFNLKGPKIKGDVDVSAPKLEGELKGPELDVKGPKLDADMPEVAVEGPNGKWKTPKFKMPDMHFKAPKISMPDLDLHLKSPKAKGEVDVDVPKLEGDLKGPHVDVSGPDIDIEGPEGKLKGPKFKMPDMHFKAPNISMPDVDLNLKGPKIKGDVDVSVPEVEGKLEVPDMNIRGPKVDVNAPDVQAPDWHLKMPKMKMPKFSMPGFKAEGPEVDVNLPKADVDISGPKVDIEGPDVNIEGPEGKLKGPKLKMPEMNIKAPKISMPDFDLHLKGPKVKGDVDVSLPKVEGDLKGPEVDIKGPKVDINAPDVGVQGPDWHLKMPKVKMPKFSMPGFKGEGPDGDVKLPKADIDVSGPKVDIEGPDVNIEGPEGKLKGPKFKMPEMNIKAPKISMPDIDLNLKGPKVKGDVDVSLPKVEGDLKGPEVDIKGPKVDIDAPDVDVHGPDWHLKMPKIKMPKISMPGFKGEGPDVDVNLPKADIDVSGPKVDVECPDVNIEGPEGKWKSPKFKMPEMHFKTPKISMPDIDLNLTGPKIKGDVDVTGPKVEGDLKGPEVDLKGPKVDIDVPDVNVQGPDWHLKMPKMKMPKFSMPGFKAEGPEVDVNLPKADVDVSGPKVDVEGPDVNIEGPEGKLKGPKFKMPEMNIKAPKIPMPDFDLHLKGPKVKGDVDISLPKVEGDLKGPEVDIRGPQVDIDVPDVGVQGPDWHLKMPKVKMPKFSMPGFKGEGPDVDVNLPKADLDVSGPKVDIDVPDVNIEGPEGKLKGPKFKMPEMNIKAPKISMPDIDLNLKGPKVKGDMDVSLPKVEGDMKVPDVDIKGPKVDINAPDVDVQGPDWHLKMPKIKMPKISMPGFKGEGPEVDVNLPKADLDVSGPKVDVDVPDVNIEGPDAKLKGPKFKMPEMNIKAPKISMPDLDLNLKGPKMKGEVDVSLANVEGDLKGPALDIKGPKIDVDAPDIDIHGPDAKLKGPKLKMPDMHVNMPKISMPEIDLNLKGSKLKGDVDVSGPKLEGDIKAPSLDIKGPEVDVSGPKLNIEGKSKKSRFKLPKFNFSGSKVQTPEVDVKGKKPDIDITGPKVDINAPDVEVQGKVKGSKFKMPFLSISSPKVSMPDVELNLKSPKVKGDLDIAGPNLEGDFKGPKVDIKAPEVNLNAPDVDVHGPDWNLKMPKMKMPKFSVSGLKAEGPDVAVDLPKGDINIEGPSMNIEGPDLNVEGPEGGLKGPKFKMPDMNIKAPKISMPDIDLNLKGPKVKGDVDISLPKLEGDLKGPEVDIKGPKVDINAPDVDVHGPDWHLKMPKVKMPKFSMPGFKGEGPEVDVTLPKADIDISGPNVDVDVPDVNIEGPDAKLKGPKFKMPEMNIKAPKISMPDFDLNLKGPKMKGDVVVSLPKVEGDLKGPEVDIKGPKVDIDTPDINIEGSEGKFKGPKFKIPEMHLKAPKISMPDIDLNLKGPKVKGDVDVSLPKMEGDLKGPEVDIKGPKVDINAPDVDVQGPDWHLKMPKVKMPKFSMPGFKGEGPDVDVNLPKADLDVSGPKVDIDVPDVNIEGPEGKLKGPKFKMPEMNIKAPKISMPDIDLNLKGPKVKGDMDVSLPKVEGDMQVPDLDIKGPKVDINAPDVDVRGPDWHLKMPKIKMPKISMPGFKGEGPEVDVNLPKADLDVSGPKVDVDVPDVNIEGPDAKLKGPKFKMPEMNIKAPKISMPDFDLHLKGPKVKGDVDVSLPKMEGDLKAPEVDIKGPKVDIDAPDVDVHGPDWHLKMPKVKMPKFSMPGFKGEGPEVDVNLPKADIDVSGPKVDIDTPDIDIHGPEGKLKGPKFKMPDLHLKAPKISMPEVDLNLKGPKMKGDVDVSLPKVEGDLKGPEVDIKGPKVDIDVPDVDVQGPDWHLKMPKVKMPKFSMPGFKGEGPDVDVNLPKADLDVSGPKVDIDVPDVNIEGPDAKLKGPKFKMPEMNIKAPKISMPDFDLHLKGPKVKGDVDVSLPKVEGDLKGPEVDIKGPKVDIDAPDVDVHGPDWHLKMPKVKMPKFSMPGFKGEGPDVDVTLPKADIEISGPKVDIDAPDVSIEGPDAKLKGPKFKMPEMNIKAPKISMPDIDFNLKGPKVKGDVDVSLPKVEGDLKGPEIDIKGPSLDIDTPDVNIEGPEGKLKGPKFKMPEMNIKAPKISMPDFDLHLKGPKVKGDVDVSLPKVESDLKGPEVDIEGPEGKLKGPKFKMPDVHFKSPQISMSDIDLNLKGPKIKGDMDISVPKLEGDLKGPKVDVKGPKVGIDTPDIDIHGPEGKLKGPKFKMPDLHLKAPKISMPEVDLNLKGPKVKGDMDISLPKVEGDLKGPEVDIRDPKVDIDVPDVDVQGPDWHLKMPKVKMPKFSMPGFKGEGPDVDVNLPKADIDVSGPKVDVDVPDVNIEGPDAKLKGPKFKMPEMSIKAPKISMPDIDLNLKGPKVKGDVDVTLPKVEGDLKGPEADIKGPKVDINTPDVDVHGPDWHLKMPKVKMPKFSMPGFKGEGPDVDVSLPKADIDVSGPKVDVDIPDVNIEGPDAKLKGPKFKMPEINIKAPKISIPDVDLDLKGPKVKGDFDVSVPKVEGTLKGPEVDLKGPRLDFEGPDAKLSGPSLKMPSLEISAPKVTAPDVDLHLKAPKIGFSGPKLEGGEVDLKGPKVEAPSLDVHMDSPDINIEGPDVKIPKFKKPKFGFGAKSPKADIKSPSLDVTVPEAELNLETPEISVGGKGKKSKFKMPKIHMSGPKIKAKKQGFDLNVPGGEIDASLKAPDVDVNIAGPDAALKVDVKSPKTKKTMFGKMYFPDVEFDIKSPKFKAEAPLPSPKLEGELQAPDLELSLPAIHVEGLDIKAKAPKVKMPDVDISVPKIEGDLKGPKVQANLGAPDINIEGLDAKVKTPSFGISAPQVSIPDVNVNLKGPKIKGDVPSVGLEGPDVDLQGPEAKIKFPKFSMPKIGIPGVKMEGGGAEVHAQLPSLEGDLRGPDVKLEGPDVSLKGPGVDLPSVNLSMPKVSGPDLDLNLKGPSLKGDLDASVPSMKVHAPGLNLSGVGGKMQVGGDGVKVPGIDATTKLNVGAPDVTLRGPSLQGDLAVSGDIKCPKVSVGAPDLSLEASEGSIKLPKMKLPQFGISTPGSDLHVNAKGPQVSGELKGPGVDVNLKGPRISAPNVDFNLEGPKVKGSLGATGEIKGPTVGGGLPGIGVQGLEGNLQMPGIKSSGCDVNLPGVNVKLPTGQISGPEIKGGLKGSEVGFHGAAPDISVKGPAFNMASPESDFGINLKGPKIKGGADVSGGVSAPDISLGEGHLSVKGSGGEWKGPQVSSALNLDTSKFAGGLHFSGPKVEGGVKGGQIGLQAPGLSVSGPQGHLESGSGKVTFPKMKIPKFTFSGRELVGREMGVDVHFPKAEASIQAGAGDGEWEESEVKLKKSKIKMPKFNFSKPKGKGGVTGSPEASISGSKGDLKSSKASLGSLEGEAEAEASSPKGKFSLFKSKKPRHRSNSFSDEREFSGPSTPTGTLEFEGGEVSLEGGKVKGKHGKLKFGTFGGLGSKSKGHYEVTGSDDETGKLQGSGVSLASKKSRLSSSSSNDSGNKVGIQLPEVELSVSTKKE
UniProt Q13362, whole entry, looked up: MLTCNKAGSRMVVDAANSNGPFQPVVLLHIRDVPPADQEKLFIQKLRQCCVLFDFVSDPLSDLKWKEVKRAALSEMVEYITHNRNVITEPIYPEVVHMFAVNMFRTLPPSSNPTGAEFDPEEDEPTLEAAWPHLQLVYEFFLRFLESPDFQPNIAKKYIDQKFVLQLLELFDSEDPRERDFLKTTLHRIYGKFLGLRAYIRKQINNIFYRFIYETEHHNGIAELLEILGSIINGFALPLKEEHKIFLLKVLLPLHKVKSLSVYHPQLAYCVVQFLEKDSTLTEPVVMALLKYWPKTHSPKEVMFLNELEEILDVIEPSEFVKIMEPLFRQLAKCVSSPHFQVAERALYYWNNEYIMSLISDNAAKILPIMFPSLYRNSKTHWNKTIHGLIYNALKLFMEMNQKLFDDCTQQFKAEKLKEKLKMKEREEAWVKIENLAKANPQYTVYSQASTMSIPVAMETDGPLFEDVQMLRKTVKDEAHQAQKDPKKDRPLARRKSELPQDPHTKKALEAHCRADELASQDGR

What follows are targets tested with Nc1ncnc2c1ncn2[C@@H]1O[C@H](COP(=O)(O)OP(=O)(O)NP(=O)(O)O)[C@@H](O)[C@H]1O [adenylyl imidodiphosphate] (assay: NP40-soluble protein abundance relative to vehicle (solubility fold change) (ratio); higher = more soluble protein in presence of AMP-PNP). Conditions: concentration: 1mM.
Procedure, shortened: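 Crude Jurkat lysate, prepared by Dounce homogenisation, was exposed to eight concentrations from 0.1 to 10 mM for 10 min at room temperature and then 3 min at 37 °C. Solubilisation used 0.8% NP40 with benzonase for 60 min at 4 °C, followed by ultracentrifugation and TMT labelling of the supernatant for LC-MS/MS. After vsn normalisation of intensities, each value is the fold change against the detergent-processed vehicle within each replicate, across three independent experiments.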
In the case of TMED1 (UniProt Q13445), the NP40-soluble protein abundance is reported as 1 ± 0.069.
In the case of ITPR2 (UniProt Q14571), the NP40-soluble protein abundance is reported as 0.965 ± 0.036.
In the case of UniProt Q13535 and related entries, the NP40-soluble protein abundance is reported as 1.003 ± 0.0071.
UniProt Q15084 and related entries was tested, and the NP40-soluble protein abundance was 0.949 ± 0.019.
With LCP2 (UniProt Q13094) the NP40-soluble protein abundance was 1.02 ± 0.027.
DNAJC3 (UniProt Q13217) was tested, and the NP40-soluble protein abundance was 0.978 ± 0.031.
With BLMH (UniProt Q13867) the NP40-soluble protein abundance was 0.943 ± 0.046.
Target UniProt Q13243 has an NP40-soluble protein abundance of 1.1 ± 0.056.
Work on UniProt Q15046 yielded an NP40-soluble protein abundance of 0.936 ± 0.07.
Work on UniProt Q10589 and related entries yielded an NP40-soluble protein abundance of 1.0272 ± 0.00052.

Same assay, conditions: concentration: 2mM
UniProt Q15025 and related entries showed an NP40-soluble protein abundance of 1.02 ± 0.035.
UniProt Q12769 and related entries gave an NP40-soluble protein abundance of 0.9518 ± 0.0046.
Work on EIF2B5 (UniProt Q13144) yielded an NP40-soluble protein abundance of 0.969 ± 0.038.
Target UniProt Q14790 and related entries has an NP40-soluble protein abundance of 0.956 ± 0.045.
In the case of COTL1 (UniProt Q14019), the NP40-soluble protein abundance is reported as 1.05 ± 0.096.
Target UniProt Q12933 and related entries has an NP40-soluble protein abundance of 0.961 ± 0.032.
Target URB2 (UniProt Q14146) has an NP40-soluble protein abundance of 0.9722 ± 0.0054.
AHNAK (UniProt Q09666) showed an NP40-soluble protein abundance of 1.09 ± 0.075.
UniProt Q12974 and related entries was tested, and the NP40-soluble protein abundance was 1.022 ± 0.0039.
In the case of PMPCA (UniProt Q10713), the NP40-soluble protein abundance is reported as 0.892 ± 0.11.
Target UniProt Q14980 and related entries has an NP40-soluble protein abundance of 1.06 ± 0.09.
UniProt Q14CB8 and related entries showed an NP40-soluble protein abundance of 1 ± 0.047.
With RAB33A (UniProt Q14088) the NP40-soluble protein abundance was 0.976 ± 0.013.
Work on EIF3A (UniProt Q14152) yielded an NP40-soluble protein abundance of 1.08 ± 0.044.
SNX1 (UniProt Q13596) showed an NP40-soluble protein abundance of 0.998 ± 0.017.
IQGAP2 (UniProt Q13576) was tested, and the NP40-soluble protein abundance was 0.935 ± 0.022.
In the case of EP300 (UniProt Q09472), the NP40-soluble protein abundance is reported as 1.04 ± 0.017.
UniProt Q13362-2|Q13362-3|Q13362-4 showed an NP40-soluble protein abundance of 1.04 ± 0.036.
In the case of IK (UniProt Q13123), the NP40-soluble protein abundance is reported as 1.1 ± 0.06.
UniProt Q15006 gave an NP40-soluble protein abundance of 0.9532 ± 0.0062.
Target SMC1A (UniProt Q14683) has an NP40-soluble protein abundance of 1.05 ± 0.03.
For UniProt Q13131 and related entries, the NP40-soluble protein abundance was 1 ± 0.038.
UniProt Q13191 and related entries showed an NP40-soluble protein abundance of 1.04 ± 0.022.
LAPTM5 (UniProt Q13571) showed an NP40-soluble protein abundance of 1.03 ± 0.023.
In the case of UniProt Q13472 and related entries, the NP40-soluble protein abundance is reported as 0.969 ± 0.039.
EIF4EBP2 (UniProt Q13542) showed an NP40-soluble protein abundance of 1.042 ± 0.0084.
For TMED1 (UniProt Q13445), the NP40-soluble protein abundance was 0.992 ± 0.031.
ITPR2 (UniProt Q14571) showed an NP40-soluble protein abundance of 0.922 ± 0.067.
UniProt Q13535 and related entries showed an NP40-soluble protein abundance of 0.9941 ± 0.0087.
With UniProt Q15084 and related entries the NP40-soluble protein abundance was 0.989 ± 0.021.
In the case of LCP2 (UniProt Q13094), the NP40-soluble protein abundance is reported as 1.05 ± 0.053.
DNAJC3 (UniProt Q13217) gave an NP40-soluble protein abundance of 0.9648 ± 0.0063.
BLMH (UniProt Q13867) gave an NP40-soluble protein abundance of 0.869 ± 0.11.
UniProt Q13243 showed an NP40-soluble protein abundance of 1.2 ± 0.091.
Target UniProt Q15046 has an NP40-soluble protein abundance of 0.891 ± 0.14.
UniProt Q10589 and related entries gave an NP40-soluble protein abundance of 1.04 ± 0.011.
